Results are given in words; binding and its absence hold for the method and conditions named. Some binding calls cover weakened binding; strength is not graded here.

Protein sequences, listed by entry. Tags and fused reporters are not part of them. Residues count along the entry.
UniProt P43121, residues 24-646: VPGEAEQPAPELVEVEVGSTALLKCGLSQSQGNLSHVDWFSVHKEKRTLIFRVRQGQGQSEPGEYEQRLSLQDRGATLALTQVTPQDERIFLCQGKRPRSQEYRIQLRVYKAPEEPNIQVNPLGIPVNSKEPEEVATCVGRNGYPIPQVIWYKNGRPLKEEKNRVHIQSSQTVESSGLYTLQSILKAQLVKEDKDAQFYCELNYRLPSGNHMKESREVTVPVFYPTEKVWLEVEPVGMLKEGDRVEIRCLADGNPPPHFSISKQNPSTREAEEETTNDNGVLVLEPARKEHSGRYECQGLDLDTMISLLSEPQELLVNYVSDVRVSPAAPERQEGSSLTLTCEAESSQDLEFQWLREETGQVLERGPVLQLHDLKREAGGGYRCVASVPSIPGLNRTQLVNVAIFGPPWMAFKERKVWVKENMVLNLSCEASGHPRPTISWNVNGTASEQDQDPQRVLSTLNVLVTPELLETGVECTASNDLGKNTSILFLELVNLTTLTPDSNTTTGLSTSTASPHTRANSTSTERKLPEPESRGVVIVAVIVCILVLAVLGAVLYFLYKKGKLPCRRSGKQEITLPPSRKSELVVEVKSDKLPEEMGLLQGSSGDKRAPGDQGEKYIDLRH

Here are results for 1 molecule from US20160206764A1 (ONCOINVENT, published 2016).

The target of this assay is CD146/MCAM/MUC-18 in a commercial lysate of overexpressing cells (OriGene) (UniProt P43121). The assay is described as follows: Western blot of commercial lysate of CD146 overexpressing cells. On the technique in general: Immunoblotting shows a protein as a band on a membrane.

B1: OI-3 murine monoclonal antibody (antibody, V domains shown)
VH: EVQLQQSGPELVKTGASVKISCKASGYSFTGYYIHWVKQSHGKSLEWIGYISNYNGATTYSQEFKGKATFTVDRSSRIAYMQFTGLTSEDSAVYYCAGNSWGDWYFDVWGAGTTVTVSS
VL: DVVMTQTPLSLPVSLGDQASISCRSSQSLVHSNGNTYLHWYLQKPGQSPKLLIYKVSNRFSGVPDRFSGSGSGTDFTLKISRVEAEDLGVYFCSQSTHVSTFGGGTKLEIK
notes: also called ^177Lu-OI-3
On to B1, for which the binding result is listed as “binds”.
